The list shows a part of the results.
Assays:
Assay in all cases: log2 fold change, soluble protein after heating vs DMSO (PISA); higher = thermal stabilisation; K562 lysate, 10 uM; active = over 0.2 and 3.5 SD of the protein, either way, in both replicates (recomputed)
lapatinib = compound: CS(=O)(=O)CCNCc1ccc(-c2ccc3ncnc(Nc4ccc(OCc5cccc(F)c5)c(Cl)c4)c3c2)o1 [lapatinib]
Method in brief: (§1)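 Following dounce homogenisation of K562 pellets in PBS pH 7.4 with 1 mM MgCl2, crude extract at 1 mg/mL protein was incubated for 30 min with 10 μM compound. Aliquots were then heated for 3 min over 48°C-58°C and pooled, NP-40 was added to 0.5% at 4°C, and soluble protein was recovered as the supernatant at 21,000xg for 90 min. Channel-sum-equalised TMTpro 16plex LC-MS/MS quantified this protein. Each value, from duplicates, is a log-two fold change in thermal stability relative to solvent controls.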

Amino acid sequences for entries named in this document (tags omitted). A change or cut given only in a name is not applied to a line headed by its entry.
UniProt P06753, whole entry, looked up: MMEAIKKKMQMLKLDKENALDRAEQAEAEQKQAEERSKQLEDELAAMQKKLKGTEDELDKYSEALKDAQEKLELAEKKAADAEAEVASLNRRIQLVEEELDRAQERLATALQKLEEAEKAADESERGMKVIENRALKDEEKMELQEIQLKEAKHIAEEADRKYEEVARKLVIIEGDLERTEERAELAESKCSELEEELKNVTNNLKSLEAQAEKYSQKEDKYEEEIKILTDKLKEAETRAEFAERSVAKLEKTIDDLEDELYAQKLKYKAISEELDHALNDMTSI
UniProt O14787: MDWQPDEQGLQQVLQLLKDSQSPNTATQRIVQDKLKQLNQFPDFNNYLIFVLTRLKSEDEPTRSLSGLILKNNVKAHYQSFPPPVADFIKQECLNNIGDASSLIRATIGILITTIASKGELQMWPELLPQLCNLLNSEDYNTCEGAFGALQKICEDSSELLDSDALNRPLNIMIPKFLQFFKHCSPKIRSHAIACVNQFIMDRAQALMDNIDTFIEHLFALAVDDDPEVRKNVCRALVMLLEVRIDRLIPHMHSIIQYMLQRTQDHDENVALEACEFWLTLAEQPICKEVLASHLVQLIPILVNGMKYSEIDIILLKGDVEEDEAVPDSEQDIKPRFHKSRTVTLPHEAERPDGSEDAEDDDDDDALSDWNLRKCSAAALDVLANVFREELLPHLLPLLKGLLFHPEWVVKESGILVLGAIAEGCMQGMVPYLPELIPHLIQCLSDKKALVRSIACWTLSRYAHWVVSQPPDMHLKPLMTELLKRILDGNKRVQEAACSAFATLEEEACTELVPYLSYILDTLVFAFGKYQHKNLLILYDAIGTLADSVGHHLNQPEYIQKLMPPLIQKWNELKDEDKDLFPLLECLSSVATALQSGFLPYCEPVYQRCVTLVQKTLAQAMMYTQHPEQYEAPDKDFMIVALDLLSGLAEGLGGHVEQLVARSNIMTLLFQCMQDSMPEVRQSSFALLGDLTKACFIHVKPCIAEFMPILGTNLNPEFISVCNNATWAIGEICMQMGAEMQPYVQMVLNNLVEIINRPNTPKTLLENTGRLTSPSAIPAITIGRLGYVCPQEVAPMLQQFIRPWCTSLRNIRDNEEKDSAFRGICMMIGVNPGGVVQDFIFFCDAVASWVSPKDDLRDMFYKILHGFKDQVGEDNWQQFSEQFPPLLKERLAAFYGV
UniProt O96008: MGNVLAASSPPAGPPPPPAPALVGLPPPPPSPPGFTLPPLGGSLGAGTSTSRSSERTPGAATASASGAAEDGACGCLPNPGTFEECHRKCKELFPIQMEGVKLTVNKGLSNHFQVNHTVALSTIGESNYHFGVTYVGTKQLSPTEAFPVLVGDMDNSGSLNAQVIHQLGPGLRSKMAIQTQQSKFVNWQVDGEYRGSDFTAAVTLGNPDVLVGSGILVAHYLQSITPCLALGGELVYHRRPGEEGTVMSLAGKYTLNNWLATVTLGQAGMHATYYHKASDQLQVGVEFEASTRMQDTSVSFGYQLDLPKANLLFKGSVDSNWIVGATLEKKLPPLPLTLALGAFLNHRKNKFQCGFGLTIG
UniProt Q9C0C2: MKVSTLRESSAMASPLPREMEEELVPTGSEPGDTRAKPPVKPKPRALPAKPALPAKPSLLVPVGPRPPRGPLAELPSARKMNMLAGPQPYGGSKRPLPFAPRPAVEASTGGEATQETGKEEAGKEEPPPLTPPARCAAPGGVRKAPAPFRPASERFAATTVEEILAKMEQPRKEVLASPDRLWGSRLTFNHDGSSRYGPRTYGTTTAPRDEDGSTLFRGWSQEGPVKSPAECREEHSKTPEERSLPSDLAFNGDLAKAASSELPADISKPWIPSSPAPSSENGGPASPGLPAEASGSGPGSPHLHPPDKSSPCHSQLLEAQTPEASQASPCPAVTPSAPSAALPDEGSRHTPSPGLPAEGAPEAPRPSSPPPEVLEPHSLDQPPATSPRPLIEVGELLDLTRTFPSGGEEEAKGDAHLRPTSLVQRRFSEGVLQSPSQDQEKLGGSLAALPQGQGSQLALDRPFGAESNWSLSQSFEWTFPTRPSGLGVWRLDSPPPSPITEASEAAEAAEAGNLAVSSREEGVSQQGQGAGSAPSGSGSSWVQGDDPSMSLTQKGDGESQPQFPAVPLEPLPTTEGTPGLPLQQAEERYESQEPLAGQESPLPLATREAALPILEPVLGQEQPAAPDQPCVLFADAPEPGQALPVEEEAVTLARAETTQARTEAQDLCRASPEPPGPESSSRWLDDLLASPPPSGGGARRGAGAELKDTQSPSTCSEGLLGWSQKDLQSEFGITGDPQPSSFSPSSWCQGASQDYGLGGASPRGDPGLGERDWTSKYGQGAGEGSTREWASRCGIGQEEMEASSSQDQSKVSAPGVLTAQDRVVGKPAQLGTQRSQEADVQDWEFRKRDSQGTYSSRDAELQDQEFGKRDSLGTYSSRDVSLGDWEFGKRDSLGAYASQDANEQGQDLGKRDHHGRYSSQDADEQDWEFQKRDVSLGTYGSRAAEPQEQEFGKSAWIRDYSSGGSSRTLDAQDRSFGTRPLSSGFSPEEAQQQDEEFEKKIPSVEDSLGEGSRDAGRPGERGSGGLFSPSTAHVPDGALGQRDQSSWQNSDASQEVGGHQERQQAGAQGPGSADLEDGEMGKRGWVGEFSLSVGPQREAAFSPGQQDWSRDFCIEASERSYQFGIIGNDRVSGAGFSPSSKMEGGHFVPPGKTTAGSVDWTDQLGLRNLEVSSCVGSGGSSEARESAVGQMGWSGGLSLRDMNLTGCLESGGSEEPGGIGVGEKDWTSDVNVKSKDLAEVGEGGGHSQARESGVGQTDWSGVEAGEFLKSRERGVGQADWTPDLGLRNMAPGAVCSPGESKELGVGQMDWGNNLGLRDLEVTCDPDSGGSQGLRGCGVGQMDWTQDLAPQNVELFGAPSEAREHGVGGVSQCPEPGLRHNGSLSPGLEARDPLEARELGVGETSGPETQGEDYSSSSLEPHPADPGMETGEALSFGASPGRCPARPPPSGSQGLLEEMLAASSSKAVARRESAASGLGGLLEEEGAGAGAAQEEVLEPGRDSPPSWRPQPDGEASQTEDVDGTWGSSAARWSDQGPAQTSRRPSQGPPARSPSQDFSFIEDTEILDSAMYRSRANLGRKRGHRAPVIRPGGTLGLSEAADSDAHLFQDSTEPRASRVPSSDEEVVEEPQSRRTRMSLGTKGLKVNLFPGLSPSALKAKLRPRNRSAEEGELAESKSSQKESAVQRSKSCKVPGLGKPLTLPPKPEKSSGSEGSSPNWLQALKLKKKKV
UniProt Q9NQ34: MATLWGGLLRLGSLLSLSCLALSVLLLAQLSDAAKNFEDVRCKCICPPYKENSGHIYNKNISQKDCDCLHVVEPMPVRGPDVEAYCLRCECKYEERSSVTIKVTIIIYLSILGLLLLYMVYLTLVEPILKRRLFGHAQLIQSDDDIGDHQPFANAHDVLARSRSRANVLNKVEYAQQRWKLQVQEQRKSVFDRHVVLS
UniProt Q96JJ7: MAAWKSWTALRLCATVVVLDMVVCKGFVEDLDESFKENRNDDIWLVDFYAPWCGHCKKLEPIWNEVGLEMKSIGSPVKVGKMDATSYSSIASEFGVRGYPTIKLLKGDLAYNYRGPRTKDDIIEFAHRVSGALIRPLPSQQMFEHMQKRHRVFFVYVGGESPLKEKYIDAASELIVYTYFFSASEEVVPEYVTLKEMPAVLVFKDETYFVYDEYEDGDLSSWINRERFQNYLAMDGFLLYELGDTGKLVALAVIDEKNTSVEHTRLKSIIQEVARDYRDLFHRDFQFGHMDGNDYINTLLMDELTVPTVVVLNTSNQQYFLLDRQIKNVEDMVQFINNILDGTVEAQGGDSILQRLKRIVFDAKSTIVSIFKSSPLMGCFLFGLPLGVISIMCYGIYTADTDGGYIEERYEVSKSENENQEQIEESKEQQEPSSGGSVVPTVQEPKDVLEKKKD
UniProt Q4ZIN3: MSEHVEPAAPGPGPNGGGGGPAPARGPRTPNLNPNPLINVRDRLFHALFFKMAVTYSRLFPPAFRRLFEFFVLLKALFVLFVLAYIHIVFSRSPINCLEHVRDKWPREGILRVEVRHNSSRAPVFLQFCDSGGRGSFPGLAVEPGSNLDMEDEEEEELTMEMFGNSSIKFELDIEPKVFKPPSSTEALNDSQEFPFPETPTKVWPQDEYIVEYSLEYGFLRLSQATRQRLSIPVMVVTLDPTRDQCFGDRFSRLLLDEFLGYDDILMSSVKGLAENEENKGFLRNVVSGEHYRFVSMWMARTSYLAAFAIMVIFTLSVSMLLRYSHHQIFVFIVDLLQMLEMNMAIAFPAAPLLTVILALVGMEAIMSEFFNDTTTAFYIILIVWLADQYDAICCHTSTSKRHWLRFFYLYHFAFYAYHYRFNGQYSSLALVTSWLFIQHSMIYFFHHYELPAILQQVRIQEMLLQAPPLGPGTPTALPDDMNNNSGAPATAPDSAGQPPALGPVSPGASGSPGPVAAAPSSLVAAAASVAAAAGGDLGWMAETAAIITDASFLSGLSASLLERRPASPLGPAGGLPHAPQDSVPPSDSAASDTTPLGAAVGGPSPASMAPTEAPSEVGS
UniProt Q5SWH9: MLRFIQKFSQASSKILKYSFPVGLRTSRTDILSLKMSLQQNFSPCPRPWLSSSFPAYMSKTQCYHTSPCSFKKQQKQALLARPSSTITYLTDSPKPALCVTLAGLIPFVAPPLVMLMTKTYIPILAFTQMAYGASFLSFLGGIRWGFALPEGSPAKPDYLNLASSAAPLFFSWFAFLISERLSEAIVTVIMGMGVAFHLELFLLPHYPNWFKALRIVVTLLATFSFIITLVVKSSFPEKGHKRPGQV
UniProt Q9Y5L0: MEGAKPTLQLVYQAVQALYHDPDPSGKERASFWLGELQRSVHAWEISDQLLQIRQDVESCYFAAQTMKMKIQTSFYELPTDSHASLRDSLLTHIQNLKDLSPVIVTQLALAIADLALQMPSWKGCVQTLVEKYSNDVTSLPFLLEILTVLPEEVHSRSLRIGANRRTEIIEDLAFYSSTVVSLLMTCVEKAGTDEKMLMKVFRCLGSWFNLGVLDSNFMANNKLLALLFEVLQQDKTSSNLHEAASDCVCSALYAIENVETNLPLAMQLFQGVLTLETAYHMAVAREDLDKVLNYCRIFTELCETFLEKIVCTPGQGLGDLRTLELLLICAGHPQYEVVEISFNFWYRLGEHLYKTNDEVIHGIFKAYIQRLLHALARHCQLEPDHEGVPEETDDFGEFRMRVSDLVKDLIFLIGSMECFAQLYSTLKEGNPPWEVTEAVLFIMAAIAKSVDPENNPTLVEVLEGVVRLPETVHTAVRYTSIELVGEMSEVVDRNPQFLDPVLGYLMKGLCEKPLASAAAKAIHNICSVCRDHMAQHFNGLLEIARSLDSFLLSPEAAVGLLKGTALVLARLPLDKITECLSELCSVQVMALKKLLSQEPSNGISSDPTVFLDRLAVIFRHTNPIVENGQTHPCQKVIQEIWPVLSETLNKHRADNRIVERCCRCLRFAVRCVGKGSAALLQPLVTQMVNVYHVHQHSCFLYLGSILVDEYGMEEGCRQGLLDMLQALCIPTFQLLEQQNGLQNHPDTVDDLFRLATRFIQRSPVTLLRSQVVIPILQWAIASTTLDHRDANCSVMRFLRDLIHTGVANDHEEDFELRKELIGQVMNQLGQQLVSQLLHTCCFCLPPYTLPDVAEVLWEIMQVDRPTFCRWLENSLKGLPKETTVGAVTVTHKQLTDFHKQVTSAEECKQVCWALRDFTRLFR
UniProt Q969M1: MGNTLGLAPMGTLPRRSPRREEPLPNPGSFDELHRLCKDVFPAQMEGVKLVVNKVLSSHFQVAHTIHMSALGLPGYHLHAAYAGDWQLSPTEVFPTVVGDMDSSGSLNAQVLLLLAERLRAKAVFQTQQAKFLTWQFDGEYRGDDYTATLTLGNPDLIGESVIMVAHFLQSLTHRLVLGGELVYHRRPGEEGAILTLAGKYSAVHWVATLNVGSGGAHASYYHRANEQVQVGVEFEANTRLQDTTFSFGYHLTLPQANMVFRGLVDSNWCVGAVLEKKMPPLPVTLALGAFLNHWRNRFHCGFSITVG
UniProt Q8NFQ8: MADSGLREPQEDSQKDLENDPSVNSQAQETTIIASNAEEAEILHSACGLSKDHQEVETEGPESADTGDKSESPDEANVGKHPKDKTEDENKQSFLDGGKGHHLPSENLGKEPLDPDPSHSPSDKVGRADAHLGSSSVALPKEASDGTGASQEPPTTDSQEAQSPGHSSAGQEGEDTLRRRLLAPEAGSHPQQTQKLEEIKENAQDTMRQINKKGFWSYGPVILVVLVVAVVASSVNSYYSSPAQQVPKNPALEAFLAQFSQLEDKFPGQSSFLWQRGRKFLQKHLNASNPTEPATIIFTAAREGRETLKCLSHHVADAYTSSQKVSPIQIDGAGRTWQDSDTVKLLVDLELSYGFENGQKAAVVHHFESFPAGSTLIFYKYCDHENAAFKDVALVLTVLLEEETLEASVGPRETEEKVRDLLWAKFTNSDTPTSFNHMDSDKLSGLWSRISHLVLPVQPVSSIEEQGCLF

pictilisib = compound: CS(=O)(=O)N1CCN(Cc2cc3nc(-c4cccc5[nH]ncc45)nc(N4CCOCC4)c3s2)CC1 [pictilisib]
Method in brief: as §1

crizotinib = compound: C[C@@H](Oc1cc(-c2cnn(C3CCNCC3)c2)cnc1N)c1c(Cl)ccc(F)c1Cl [crizotinib]
Method in brief: as §1

[1] = compound: C[C@H](C1=CC=C(C=C1)C(=O)NC2=C3C=CNC3=NC=C2)N
Method in brief: as §1

duvelisib = compound: C[C@H](Nc1ncnc2nc[nH]c12)c1cc2cccc(Cl)c2c(=O)n1-c1ccccc1 [duvelisib]
Method in brief: as §1

gandotinib = compound: Cc1cc(Nc2cc(CN3CCOCC3)c3nc(C)c(Cc4ccc(Cl)cc4F)n3n2)n[nH]1 [gandotinib]
Method in brief: as §1

tozasertib = compound: Cc1cc(Nc2cc(N3CCN(C)CC3)nc(Sc3ccc(NC(=O)C4CC4)cc3)n2)n[nH]1 [tozasertib]
Method in brief: as §1

doramapimod = compound: Cc1ccc(-n2nc(C(C)(C)C)cc2NC(=O)Nc2ccc(OCCN3CCOCC3)c3ccccc23)cc1 [doramapimod]
Method in brief: as §1

bafetinib = compound: Cc1ccc(NC(=O)c2ccc(CN3CC[C@H](N(C)C)C3)c(C(F)(F)F)c2)cc1Nc1nccc(-c2cncnc2)n1 [bafetinib]
Method in brief: as §1

[2] = compound: Cc1cccc(CC(=O)N2CCc3c2ccc(-c2cn(C)c4ncnc(N)c24)c3F)n1
Method in brief: as §1

nilotinib = compound: Cc1cn(-c2cc(NC(=O)c3ccc(C)c(Nc4nccc(-c5cccnc5)n4)c3)cc(C(F)(F)F)c2)cn1 [nilotinib]
Method in brief: as §1

[3] = compound: Cc1nc(Nc2n[nH]c3c2CN(C(=O)N[C@H](CN(C)C)c2ccccc2)C3(C)C)c2sccc2n1
Method in brief: as §1

dasatinib = compound: Cc1nc(Nc2ncc(C(=O)Nc3c(C)cccc3Cl)s2)cc(N2CCN(CCO)CC2)n1 [dasatinib]
Method in brief: as §1

[4] = compound: Cc1ncc(-c2ccnc(Nc3ccc(S(C)(=O)=O)cc3)n2)n1C(C)C
Method in brief: as §1

[5] = compound: Cn1cc(-c2ccc3c(c2)CCN3C(=O)Cc2cccc(C(F)(F)F)c2)c2c(N)ncnc21
Method in brief: as §1

quisinostat = compound: Cn1cc(CNCC2CCN(c3ncc(C(=O)NO)cn3)CC2)c2ccccc21 [quisinostat]
Method in brief: as §1

tipifarnib = compound: Cn1cncc1[C@@](N)(c1ccc(Cl)cc1)c1ccc2c(c1)c(-c1cccc(Cl)c1)cc(=O)n2C [tipifarnib]
Method in brief: as §1

[6] = compound: NC(=O)Nc1cc(-c2cccc(F)c2)sc1C(=O)N[C@H]1CCCNC1
Method in brief: as §1

[7] = compound: NC(=O)c1cnc(N[C@@H]2CCCC[C@@H]2N)nc1Nc1cccc(-n2nccn2)c1
Method in brief: as §1

[8] = compound: NC1(c2ccc(-c3nc4ccn5c(=O)[nH]nc5c4cc3-c3ccccc3)cc2)CCC1
Method in brief: as §1

Measured: log2 fold change

TMEM245 (UniProt Q9H330)
inactive: lapatinib -0.011 | pictilisib -0.006 | crizotinib -0.018 | [1] -0.059 | duvelisib -0.032 | gandotinib 0.018 | tozasertib 0.047 | doramapimod -0.033 | bafetinib -0.008 | [2] 0.03 | nilotinib 0.031 | [3] 0.098 | dasatinib -0.037 | [4] 0.052 | [5] 0.038 | quisinostat 0.046 | tipifarnib -0.035 | [6] 0.005 | [7] 0.05 | [8] -0.009

TPM3 isoform 2 (UniProt P06753)
inactive: lapatinib -0.012 | pictilisib 0.021 | crizotinib 0.093 | [1] 0.095 | duvelisib 0.003 | gandotinib -0.169 | tozasertib 0.067 | doramapimod 0.02 | bafetinib 0.055 | [2] -0.152 | nilotinib -0.048 | [3] 0.019 | dasatinib 0.012 | [4] -0.005 | [5] 0.014 | quisinostat 0.14 | tipifarnib 0.06 | [6] -0.024 | [7] -0.003 | [8] 0.047

TNPO2 (UniProt O14787)
inactive: lapatinib -0.037 | pictilisib -0.002 | crizotinib 0.004 | [1] 0.062 | duvelisib 0 | gandotinib -0.087 | tozasertib -0.009 | doramapimod -0.039 | bafetinib -0.001 | [2] 0 | nilotinib -0.002 | [3] 0.02 | dasatinib -0.016 | [4] -0.01 | [5] -0.005 | quisinostat -0.002 | tipifarnib 0.004 | [6] -0.008 | [7] -0.002 | [8] -0.026

TOMM40 (UniProt O96008)
inactive: lapatinib -0.004 | pictilisib -0.021 | crizotinib 0.004 | [1] -0.061 | duvelisib 0.005 | gandotinib 0.081 | tozasertib -0.004 | doramapimod -0.032 | bafetinib -0.03 | [2] 0.044 | nilotinib 0.011 | [3] -0.01 | dasatinib 0.003 | [4] 0.024 | [5] -0.029 | quisinostat -0.025 | tipifarnib 0.031 | [6] -0.015 | [7] -0.019 | [8] -0.01

TNKS1BP1 (UniProt Q9C0C2)
inactive: lapatinib -0.001 | pictilisib 0.007 | crizotinib 0.002 | [1] -0.02 | duvelisib -0.003 | gandotinib 0.049 | tozasertib 0.014 | doramapimod -0.014 | bafetinib -0.014 | [2] 0.008 | nilotinib 0.006 | [3] 0.004 | dasatinib 0.014 | [4] 0.005 | [5] -0.001 | quisinostat -0.031 | tipifarnib -0.035 | [6] 0.003 | [7] 0.004 | [8] 0.012

TOP2A isoform 4 (UniProt P11388)
inactive: lapatinib -0.025 | pictilisib 0 | crizotinib -0.03 | [1] -0.118 | duvelisib -0.012 | gandotinib 0.031 | tozasertib -0.034 | doramapimod 0.009 | bafetinib -0.056 | [2] 0.148 | nilotinib -0.023 | [3] 0.021 | dasatinib 0.058 | [4] -0.029 | [5] -0.019 | quisinostat -0.006 | tipifarnib 0.043 | [6] 0.067 | [7] -0.015 | [8] -0.03

TMEM9B (UniProt Q9NQ34)
inactive: lapatinib -0.035 | pictilisib -0.045 | crizotinib -0.148 | [1] 0.074 | duvelisib 0.116 | gandotinib -0.098 | tozasertib 0.03 | doramapimod 0.107 | bafetinib 0.004 | [2] -0.082 | nilotinib 0.069 | [3] -0.119 | dasatinib -0.034 | [4] -0.027 | [5] 0.095 | quisinostat -0.007 | tipifarnib 0.012 | [6] -0.015 | [7] -0.028 | [8] 0.097

Reprinted from the entries so far (2 entries):
TOMM40 (UniProt O96008)
inactive: lapatinib -0.004 | pictilisib -0.021 | crizotinib 0.004 | [1] -0.061 | duvelisib 0.005 | gandotinib 0.081 | tozasertib -0.004 | doramapimod -0.032 | bafetinib -0.03 | [2] 0.044 | nilotinib 0.011 | [3] -0.01 | dasatinib 0.003 | [4] 0.024 | [5] -0.029 | quisinostat -0.025 | tipifarnib 0.031 | [6] -0.015 | [7] -0.019 | [8] -0.01

TNKS1BP1 (UniProt Q9C0C2)
inactive: lapatinib -0.001 | pictilisib 0.007 | crizotinib 0.002 | [1] -0.02 | duvelisib -0.003 | gandotinib 0.049 | tozasertib 0.014 | doramapimod -0.014 | bafetinib -0.014 | [2] 0.008 | nilotinib 0.006 | [3] 0.004 | dasatinib 0.014 | [4] 0.005 | [5] -0.001 | quisinostat -0.031 | tipifarnib -0.035 | [6] 0.003 | [7] 0.004 | [8] 0.012

The list goes on:

TMX3 (UniProt Q96JJ7)
inactive: lapatinib -0.016 | pictilisib -0.027 | crizotinib -0.001 | [1] -0.083 | duvelisib 0.021 | gandotinib 0.032 | tozasertib -0.005 | doramapimod 0.005 | bafetinib -0.005 | [2] 0.015 | nilotinib 0.025 | [3] -0.012 | dasatinib -0.014 | [4] -0.036 | [5] 0.03 | quisinostat -0.026 | tipifarnib -0.032 | [6] -0.023 | [7] -0.006 | [8] 0.008

TMEM259 (UniProt Q4ZIN3)
inactive: lapatinib -0.062 | pictilisib -0.035 | crizotinib -0.072 | [1] -0.079 | duvelisib 0.077 | gandotinib -0.081 | tozasertib -0.208 | doramapimod -0.077 | bafetinib -0.021 | [2] 0.055 | nilotinib 0.108 | [3] 0.015 | dasatinib -0.027 | [4] -0.056 | [5] -0.157 | quisinostat -0.097 | tipifarnib -0.081 | [6] 0.052 | [7] 0.049 | [8] 0.018

TP53I3 (UniProt Q53FA7)
inactive: lapatinib -0.013 | pictilisib -0.019 | crizotinib 0.028 | [1] -0.035 | duvelisib 0.023 | gandotinib 0.031 | tozasertib 0.007 | doramapimod -0.057 | bafetinib 0.031 | [2] -0.049 | nilotinib 0 | [3] -0.042 | dasatinib 0.089 | [4] -0.013 | [5] -0.017 | quisinostat -0.007 | tipifarnib 0.03 | [6] 0.031 | [7] -0.002 | [8] -0.006

TMEM69 (UniProt Q5SWH9)
inactive: lapatinib 0.02 | pictilisib -0.134 | crizotinib 0.17 | [1] -0.172 | duvelisib 0.082 | gandotinib 0.081 | tozasertib 0.084 | doramapimod -0.121 | bafetinib -0.012 | [2] 0.145 | nilotinib -0.011 | [3] 0.043 | dasatinib 0.008 | [4] 0.017 | [5] -0.126 | quisinostat -0.125 | tipifarnib -0.103 | [6] 0.103 | [7] -0.096 | [8] -0.025

TMEM63B (UniProt Q5T3F8)
inactive: lapatinib 0.008 | pictilisib -0.024 | crizotinib 0.028 | [1] -0.066 | duvelisib 0.057 | gandotinib 0.05 | tozasertib 0.035 | doramapimod 0.003 | bafetinib 0.046 | [2] 0.061 | nilotinib 0.044 | [3] -0.021 | dasatinib 0.101 | [4] 0.027 | [5] 0.036 | quisinostat 0.01 | tipifarnib -0.013 | [6] -0.022 | [7] 0.001 | [8] 0.029

TNPO3 (UniProt Q9Y5L0)
inactive: lapatinib -0.024 | pictilisib -0.001 | crizotinib 0.01 | [1] -0.015 | duvelisib 0.025 | gandotinib -0.006 | tozasertib -0.036 | doramapimod -0.024 | bafetinib -0.028 | [2] 0.026 | nilotinib -0.016 | [3] 0.017 | dasatinib 0 | [4] 0.003 | [5] 0.009 | quisinostat -0.001 | tipifarnib 0.001 | [6] -0.002 | [7] -0.016 | [8] -0.01

TOMM40L (UniProt Q969M1)
inactive: lapatinib -0.006 | pictilisib 0.004 | crizotinib -0.062 | [1] -0.045 | duvelisib -0.008 | gandotinib 0.077 | tozasertib 0 | doramapimod 0 | bafetinib -0.066 | [2] 0.029 | nilotinib -0.001 | [3] -0.041 | dasatinib 0.04 | [4] -0.015 | [5] -0.022 | quisinostat -0.14 | tipifarnib 0.144 | [6] 0.02 | [7] -0.011 | [8] -0.07

TMEM219 (UniProt Q86XT9)
inactive: lapatinib 0.043 | pictilisib -0.027 | crizotinib -0.024 | [1] -0.092 | duvelisib -0.037 | gandotinib 0.014 | tozasertib 0.035 | doramapimod 0.004 | bafetinib -0.047 | [2] 0.002 | nilotinib -0.03 | [3] -0.085 | dasatinib 0.035 | [4] -0.064 | [5] -0.028 | quisinostat -0.047 | tipifarnib -0.09 | [6] 0.051 | [7] -0.038 | [8] -0.018

TOR1AIP2 (UniProt Q8NFQ8)
inactive: lapatinib -0.002 | pictilisib -0.024 | crizotinib 0.079 | [1] 0.032 | duvelisib -0.029 | gandotinib -0.064 | tozasertib -0.017 | doramapimod 0.027 | bafetinib -0.01 | [2] -0.029 | nilotinib -0.104 | [3] 0.007 | dasatinib -0.017 | [4] -0.012 | [5] 0.024 | quisinostat 0.103 | tipifarnib 0.026 | [6] -0.009 | [7] 0.016 | [8] 0.025

— the supplement of paper PMC10849652
